Among all 320,000 compounds or so, about 2,100 (0.66%) were called active. Inconclusive means that the source gave no clear call. Such entries were picked first, then a sample of the others. Calls follow the shape of the dose curve; as a rule, active = well fitted inhibition curve with a large enough effect in the signal ratio, with a control signal flat (not every such curve was filed as active); inconclusive = small, poorly fitted or top-dose-only effect, or effect the other way, or a change in a side signal; inactive = flat fitted curve, though single readings scatter; the % refers to the signal ratio. Potencies of inconclusive entries are doubtful fits and often do not repeat.
Test: qHTS Assay for Lipid Storage Modulators in Drosophila S3 Cells
Conditions: BODIPY lipid droplet fluorescence, 18-24 h, cells fed with added oleic acid; lipid storage change, negative = inhibition: at 46.1 µM (top of the series) unless noted
Procedure, shortened: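 Laser-scanning cytometry quantifies lipid droplet accumulation (500–530 nm total intensity; droplet/cell object ratio) in oleic acid-fed (400 uM added) Drosophila S3 cells treated with a concentration series. 20 uM Triacsin C defined 100% inhibition.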
% is scaled to controls: 0 for no effect and ±100 for the full control effect; potency is read from the fitted curve at half-maximal effect.

SMILES	lipid storage change, negative = inhibition	Potency
O=C(CN(CC1CCCO1)C(=O)CNS(=O)(=O)c1ccc(Cl)cc1)NC1CCCCC1 (stereo not given)	inconclusive: 22.9%	–
O=S(=O)(Nc1nc2c(s1)CCCC2)c1ccc(F)cc1	inconclusive: 18.1%	–
O=C(/C=C/c1cn(CC(O)CN2CCCCC2)c2ccccc12)c1cccs1 (stereo not given)	inconclusive: -45.5%	–
COc1ccc(C(O)(CCN2CCOCC2)c2ccccc2)cc1 (stereo not given)	inconclusive: 6.03%	–
O=C(NCc1ccco1)C(=O)N1CCCC1	inconclusive: -20.9%	–
CC12CCC(=O)N1C(C(=O)NCCN1C(=O)S/C(=C\c3ccccc3F)C1=O)CS2 (stereo not given)	–	inconclusive: 18.4 µM [falling, single point]
CCOc1cc(-c2nn3cnnc3s2)cc(OCC)c1OCC	inconclusive: 26.5%	–
COc1cccc(C2=CC(c3cccc(OC)c3OC)n3nnnc3N2)c1 (stereo not given)	–	inconclusive: 0.651 µM [activator, full curve]
CN(C)c1ccc(N2C(=O)CSC2=S)cc1	inconclusive: -14.3%	–
Cc1cc(-c2ccccc2)n(-c2ccccc2)n1	–	inconclusive: 0.58 µM [activator, single point]
O=C(c1cncc(Br)c1)N1CCN(S(=O)(=O)c2ccc(Cl)cc2)CC1	inconclusive: 14.6%	–
COc1ccccc1-c1nnc(NC(=O)c2ccc(S(=O)(=O)N(C)CC3CCCO3)cc2)o1 (stereo not given)	inconclusive: -48.3%	–
Cc1c(N=C2N=C(NC(=O)c3ccc(F)cc3)c3ccccc32)c(=O)n(-c2ccccc2)n1C	inconclusive: -21.9%	–
Cc1ccccc1N1CCN(C2CCCN(C(=O)CCN3CCCCC3=O)C2)CC1 (stereo not given)	–	inconclusive: 29.1 µM [activator, single point]
C=CCSC1=NN2CCS(=O)(=O)N=C2S1	inconclusive: 65.7%	–
O=C(O)/C=C/c1ccccc1Oc1ccccc1	inconclusive: -44.6%	–
OC(COc1ccccc1)CN1CCN(Cc2ccc3c(c2)OCO3)CC1 (stereo not given)	inconclusive: -21.3%	–
CN1CCC(N(C)S(=O)(=O)c2ccc(NC(=O)Cc3ccc(F)cc3)cc2)CC1	–	inconclusive: 29.1 µM [activator, single point]
CN(CC(=O)NCc1cccnc1)S(=O)(=O)c1ccc(F)cc1	–	inconclusive: 16.4 µM [activator, partial curve]
COc1ccccc1CN1CCCC(C(=O)N2CCCCC2)C1 (stereo not given)	inactive	–
COc1ccc(-c2ccc(C#N)c(SCC(=O)Nc3sc4c(c3C#N)CCC4)n2)cc1OC	–	inconclusive: 0.366 µM [activator, full curve, poor fit]
CCN(CC)S(=O)(=O)c1ccc(Cl)c(NC(=O)CCCCl)c1	inconclusive: 35.5%	–
Cc1nc2ccc([N+](=O)[O-])cc2c(=O)n1Cc1ccc(Cl)cc1	inconclusive: -19.9%	–
COc1ccc(CCn2c(-c3ccccc3)nc3c(c(=O)c4ccccc4n3C)c2=O)cc1	–	inconclusive: 0.58 µM [activator, full curve, poor fit]
Cn1c(CN2CCN(C(=O)c3ccccc3)CC2)nc2cc([N+](=O)[O-])ccc21	–	inconclusive: 0.082 µM [activator, full curve, poor fit]
O=C1CCC(=O)N1c1ccccc1OS(=O)(=O)c1ccccc1	inconclusive: -38%	–
O=C(Nc1cccc(Cl)c1)c1cnc[nH]1	inconclusive: 17.2%	–

Single records (already shown). Values in the order: lipid storage change, negative = inhibition | Potency
`O=C(Nc1cccc(Cl)c1)c1cnc[nH]1` in the list: inconclusive: 17.2% | –
`Cc1cc(-c2ccccc2)n(-c2ccccc2)n1` in the list: – | inconclusive: 0.58 µM [activator, single point]
`CN(CC(=O)NCc1cccnc1)S(=O)(=O)c1ccc(F)cc1` in the list: – | inconclusive: 16.4 µM [activator, partial curve]

(cont.)

SMILES	lipid storage change, negative = inhibition	Potency
COc1ccc(CNC(=O)CN(c2cc(C)cc(C)c2)S(=O)(=O)c2c(C)[nH]c(=O)[nH]c2=O)cc1	inconclusive: 44.9%	–
O=C(O)CCC(=O)Nc1ccc(-c2nnc(-c3ccco3)o2)cc1	inconclusive: 64.5%	–
CCOC(=O)c1ccccc1NC(=O)CSc1ccc(-c2ccccn2)nn1	–	inconclusive: 29.1 µM [falling, single point]
O=C(CSc1ncccn1)N/N=C/c1cccc(OC2CSC2)c1	inconclusive: -19%	–
O=C(c1cccnc1)N1C2CCC1CC(O)(c1ccc(F)cc1)C2 (stereo not given)	–	inconclusive: 29.1 µM [falling, single point]
Cc1cccc(NC(=O)CN(C)S(=O)(=O)c2cccs2)c1	–	inconclusive: 29.1 µM [activator, single point]
COc1ccccc1C(=O)Nc1ccc(S(=O)(=O)Nc2cnc3ccccc3n2)cc1	inconclusive: 386%	–
Cc1ccc(SCC(=O)Nc2ccc(N3CCN(c4ccccc4)CC3)c(F)c2)cc1	inconclusive: 193%	–
CCCOC1CCCN(C(=O)CCc2nnc(CCCCc3ccccc3)o2)C1 (stereo not given)	inconclusive: -28.5%	–
O=C(NCCCc1ccc(F)cc1)C1CCC(=O)N(CCN2CCOCC2)C1 (stereo not given)	inconclusive: 7.06%	–
Cc1ccc(NC(=O)CCC(=O)NNS(=O)(=O)c2ccc(Cl)cc2)cc1C	inactive	–
COc1cc([N+](=O)[O-])ccc1NC(=S)NC(=O)CC(C)(C)C	inconclusive: 66.3%	–
CCN(C(=O)c1cccc(Br)c1)C1CCS(=O)(=O)C1 (stereo not given)	inconclusive: 30.8%	–
CCOc1ccc(C(O)c2nccn2Cc2ccccc2)cc1 (stereo not given)	inconclusive: -1.85%	–
COc1ccc(C2(C(=O)Nc3nncs3)CCCC2)cc1	inconclusive: 2.65%	–
COc1ccc(N2CC(C(=O)NC3CC(C)(C)NC(C)(C)C3)CC2=O)cc1 (stereo not given)	inconclusive: 47.9%	–
CSc1ccc2c(c1)C(N1CCN(C)CC1)Cc1ccccc1S2 (stereo not given)	inconclusive: -22.1%	–
CC(C)CC(c1nnnn1C1CCCCC1)N1CCN(c2ncccn2)CC1 (stereo not given)	inconclusive: 15.2%	–
Cc1ccc(Nc2cc(C)nc3ccc(C)cc23)cc1	inconclusive: -22.4%	–
C=CCN1CCN(C(=O)c2ccc3c(c2)OCO3)CC1	–	inconclusive: 7.31 µM [activator, partial curve, poor fit]
Cc1c(C(=O)NCc2cccs2)oc2ccc(Br)cc12	inconclusive: 92.1%	–
CCNC(=O)N1CCN(S(=O)(=O)c2ccc3c(c2)OCCCO3)CC1	inconclusive: -11.8%	–
O=C(N/C(=C\c1cccnc1)C(=O)N1CCC(O)CC1)c1ccccc1	inconclusive: -34.3%	–
COc1ccc(OC)c(NC2=NC3(CCCCC3)N=C(N)N2)c1	inconclusive: -22.9%	–
NS(=O)(=O)c1ccc(CCNC(=O)c2ccc(Cl)cc2[N+](=O)[O-])cc1	inconclusive: -27.1%	–
Cc1ccc(C2=NN3C(C(=O)c4ccccc4)Oc4ccccc4C3C2)cc1 (stereo not given)	inconclusive: 9.32%	–
O=C1C2CC=CCC2C(=O)N1c1ccc(NCCc2cccc(F)c2)c([N+](=O)[O-])c1 (stereo not given)	inconclusive: 7.62%	–

SMILES	lipid storage change, negative = inhibition	Potency
COC(=O)C(NC(=O)CCc1c(C)nc2ncnn2c1C)C(C)C (stereo not given)	inconclusive: 4.15%	–
COc1ccc(/C=N/NC(=O)c2ccccc2OCc2ccccc2)c(OC)c1	inconclusive: 29.2%	–
CCc1cc(C(=O)N2CCN(c3ccccn3)CC2)sc1C	–	inconclusive: 1.64 µM [falling, partial curve]
CCCCN1C(=O)/C(=C/C=C2/CC(C)(C)CN2C)SC1=S	–	active: 9.2 µM
O=C(Nc1ccccc1Cl)c1ccn[nH]1	inconclusive: 25.6%	–
COC(=O)c1sc(N)c(C(=O)OC)c1COC(=O)CNS(=O)(=O)c1ccc(C)cc1	–	inconclusive: 2.59 µM [activator, full curve]
O=c1c2ccccc2ncn1Cc1ccco1	–	inconclusive: 0.0058 µM [falling, full curve, poor fit]
Cc1ccccc1NC(=O)Cc1nc(COC(=O)c2nc(Cl)ccc2Cl)cs1	inconclusive: -41.5%	–
CC(C)Oc1ccc(Cc2n[nH]c(=S)n2Cc2ccccc2)cc1Cl	inconclusive: 19.3%	–
CCN(CC)C(=S)SCC(=O)Nc1ccc(S(N)(=O)=O)cc1	inconclusive: 0.244%	–
CC1CCCCC1NC(=O)COC(=O)CN1C(=O)c2ccccc2C1=O (stereo not given)	inconclusive: 12.6%	–
COc1ccc(OC)c(C2CC(=O)N3CN(c4ccc(C)c(Cl)c4)CSC3=C2C#N)c1 (stereo not given)	inconclusive: -1.04%	–
OC1CCCN(C(=S)NCc2ccccc2)C1 (stereo not given)	inconclusive: 4.39%	–
CCc1ccc2oc(C(=O)Nc3nonc3CC)c(C)c2c1	inconclusive: 9.43%	–
Cn1cnc([N+](=O)[O-])c1Oc1ccccc1	inconclusive: -28.5%	–
Cc1c(C)c2ccc(OCC(=O)NC(Cc3ccc(Cl)cc3)C(=O)O)cc2oc1=O (stereo not given)	inconclusive: 2.39%	–
CCNc1nc(SCC(=O)OC)nc(N2CCOCC2)n1	inconclusive: 3.69%	–
C=CCn1c(COc2ccccc2F)nnc1SCC(=O)NC(=O)NCc1ccco1	inconclusive: 68.7%	–
CCOc1ccc(S(=O)(=O)N/N=C(\C)C2CCCCC2)cc1	–	active: 20.6 µM
COc1ccccc1N1CCN(S(=O)(=O)c2ccc(NC(C)=O)cc2)CC1	inconclusive: 12.6%	–
COc1ccc(-c2ccc(SCC(=O)NC3CCCCC3)nn2)cc1	–	inconclusive: 8.2 µM [activator, partial curve]
CCOC(=O)c1nn(-c2ccc(Cl)cc2)c2nc(Nc3ccccc3)cc(=O)n12	–	inconclusive: 25.9 µM [activator, single point]
CC(=O)N1CCCN(Cc2cn(-c3cccc(C)c3)nc2-c2cccc(F)c2)CC1	inconclusive: 0.0134%	–
O=C(NNC(=O)c1ccc(O)c(Cl)c1)c1cccc(S(=O)(=O)N2CCOCC2)c1	inconclusive	–
CCCCNC(=O)Cn1c(=O)oc2cc(S(=O)(=O)N3CC(C)CC(C)C3)ccc21 (stereo not given)	inconclusive: 21.7%	–
O=C(NC(C(=O)N/N=C/c1cccc2ccccc12)c1n[nH]c(=O)c2ccccc12)c1ccccc1 (stereo not given)	inconclusive: -40.9% [cytotoxic]	–
